Values from PubChem BioAssay AID504793 (Drosophila RNAi Screening Center, 2011).

Purpose: 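Genes required for cells to halt at G2/M after double-strand DNA breaks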 (primary screen)
System: Drosophila S2R+ cells
Reagent: long dsRNA against Drosophila genes, about 0.25 µg dsRNA per well
Duration: 4 days of dsRNA, then 4 hours of drug before read-out
Challenge: doxorubicin 0.5 µM for 4 hours to cause double-strand breaks, in cells also given a low, harmless dose of dsRNA against nbs to sensitise the assay
Detection: 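Per-well count of mitotic cells stained for phospho-histone H3 after doxorubicin exposure, used as mitotic index; counts are raw and not normalised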
Scale: mitotic cells: higher = more cells in mitosis, weaker G2 arrest
Hit rule: 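Genes are called active only when high mitotic counts were reproduced with independent dsRNAs and mitosis was checked for delay without damage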
Calls: active = confirmed in follow-up tests; inactive = not confirmed
The screen tested about 23,000 reagents; shown is a random part of those that have a named target and a result. Over the whole deposit, 62 (0.27%) were called active. 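Calls come from follow-up tests whose scores are not deposited, so confirmed genes may have low counts here; counts are not normalised per plate.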 The raw values are shown without normalisation. A plus sign joins genes that one reagent is predicted to hit.

gene	dsRNA	mitotic cells, replicate 1	mitotic cells, replicate 2	Outcome
imd	DRSC05928	5		inactive
imd	DRSC26032	1		inactive
CG14947	DRSC02429	7		inactive
Sur	DRSC03447	6		inactive
Sur	DRSC27276	5		inactive
Or83c	DRSC12359	7		inactive
CG42586 + CG31775	DRSC01413	9		inactive
smo	DRSC00837	5		inactive
smo	DRSC28492	7		inactive
CG3494	DRSC04375	6		inactive
CG17047	DRSC06648	3		inactive
CG2065	DRSC06813	3		inactive
CG2065	DRSC21328	75		inactive
CG2065	DRSC29164	8		inactive
PGRP-SD	DRSC10856	2		inactive
rut	DRSC22976	11		inactive
mRpL49	DRSC19908	10		inactive
phtf	DRSC05023	15		inactive
phtf	DRSC28441	1		inactive
Pal1	DRSC06106	10		inactive
Spag1	DRSC15331	18		inactive
p23	DRSC15158	13		inactive
p23	DRSC27806	8		inactive
CG14120	DRSC10124	3		inactive
CG14120	DRSC27955	7		inactive
CG34404	DRSC15335	11		inactive
CG34404	DRSC15978	3		inactive
CG34404	DRSC25463	8		inactive
chk	DRSC04994	4		inactive
CG17121	DRSC15176	11		inactive
SA2	DRSC08385	7		inactive
asRNA:Eig63F-2 + Eip63F-1	DRSC21446	9		inactive
CG10793	DRSC17760	13		inactive
CG31549	DRSC21688	12		inactive
byn	DRSC11332	4		inactive
byn	DRSC29142	6		inactive
lft	DRSC02236	4		inactive
ms(3)K81	DRSC14746	3		inactive
CG14605	DRSC12549	8		inactive
CG14605	DRSC29195	7		inactive
U2A	DRSC06445	7		inactive
U2A	DRSC28070	9		inactive
AOX2	DRSC15338	5		inactive
Mink	DRSC14291	4		inactive
CG14626	DRSC18631	13		inactive
CG14626	DRSC27786	5		inactive
Prosalpha3	DRSC04644	25		inactive
TwdlE	DRSC02392			inactive
TwdlE	DRSC24943	12		inactive
CG12391	DRSC06147	4		inactive
CG32388	DRSC08861	3		inactive
RhoGDI	DRSC10919	11		inactive
BomS5	DRSC22306	12		inactive
moon	DRSC19497	13		inactive
sicily	DRSC19704	12		inactive
CG2921	DRSC04324	9		inactive
CG2921	DRSC24432	4		inactive
AP-1mu	DRSC14089	7		inactive
AP-1mu	DRSC25744	9		inactive
CG5968	DRSC02916	7		inactive
Porin2	DRSC02584	5		inactive
CG4860	DRSC15664	13		inactive
CG4860	DRSC21755	2		inactive
Smyd4-2	DRSC10126	1		inactive
Smyd4-2	DRSC25934	4		inactive
DIP-theta	DRSC00885	4	13	inactive
DIP-theta	DRSC02340	2		inactive
CG14982	DRSC23022	10		inactive
CG5902	DRSC15912	7		inactive
Lip3	DRSC16727	8		inactive
Lip3	DRSC29354	8		inactive
CG12158	DRSC22933	11		inactive
Dlc90F	DRSC16649	7		inactive

Reformatted: results already given
gene,dsRNA,"mitotic cells, replicate 1","mitotic cells, replicate 2",Outcome
phtf,DRSC05023,15,,inactive
phtf,DRSC28441,1,,inactive
Pal1,DRSC06106,10,,inactive
Spag1,DRSC15331,18,,inactive
p23,DRSC15158,13,,inactive
p23,DRSC27806,8,,inactive
CG14120,DRSC10124,3,,inactive
CG14120,DRSC27955,7,,inactive
CG34404,DRSC15335,11,,inactive
CG34404,DRSC15978,3,,inactive
CG34404,DRSC25463,8,,inactive
chk,DRSC04994,4,,inactive
CG17121,DRSC15176,11,,inactive
SA2,DRSC08385,7,,inactive
asRNA:Eig63F-2 + Eip63F-1,DRSC21446,9,,inactive

Further results follow:
gene	dsRNA	mitotic cells, replicate 1	mitotic cells, replicate 2	Outcome
CG5276	DRSC15759	3		inactive
Nf-YB	DRSC02057	6		inactive
RpL34a	DRSC15964	7		inactive
CG31210 (retired record) + CG4836	DRSC22066	18		inactive
mei-38	DRSC18564	9		inactive
Obp19a	DRSC20487	6		inactive
Edem1	DRSC18573	7		inactive
Ptip	DRSC10660	11		inactive
Ptip	DRSC11048	13		inactive
Kmn1	DRSC19666	18		inactive
Kmn1	DRSC27299	4		inactive
O-fut2	DRSC18608	11		inactive
Ance	DRSC01865	5		inactive
CG17270	DRSC15209	9		inactive
axed	DRSC08833	10		inactive
axed	DRSC10982	3		inactive
BthD	DRSC19395	6		inactive
BthD	DRSC25871			inactive
Tsp42Er	DRSC06183	6		inactive
ND-51L2	DRSC07080	14		inactive
CG3156	DRSC18503	6		inactive
CG3156	DRSC27939	6		inactive
SRPK	DRSC07090	5		inactive
SRPK	DRSC28162	6		inactive
AspRS	DRSC05914			inactive
CG8379	DRSC16414	5		inactive
Mst84Db	DRSC12542	5		inactive
Mst84Db	DRSC12598	3		inactive
Mst84Db	DRSC29236	5		inactive
CG7542	DRSC10868	8		inactive
NSD	DRSC15691	17		inactive
CG1075 (retired record)	DRSC12144	5		inactive
Pfdn6	DRSC10915	3		inactive
spel1	DRSC03617	5		inactive
spel1	DRSC29609	4		inactive
CG13185	DRSC06310	6		inactive
Pis	DRSC20178	8		inactive
Pis	DRSC29976	5		inactive
CG4115	DRSC15545	4		inactive
SmD3	DRSC07553	4		inactive
SmD3	DRSC29356	1		inactive
Agpat1	DRSC19879	23		inactive
Agpat1	DRSC19880	14		inactive
grk	DRSC03540	4		inactive
PGAP3	DRSC04989	3		inactive
Lsp2	DRSC09841	6		inactive
Lsp2	DRSC11216	4		inactive
Lsp2	DRSC24021	5		inactive
Sf3b1	DRSC00535	7		inactive
CG7523	DRSC16254	7		inactive
lwr	DRSC00828	14		inactive
lwr	DRSC27034	18		active
Dus1	DRSC00623	8		inactive
Mp20	DRSC07474	5		inactive
Mp20	DRSC29793	8		inactive
nord	DRSC04210	10		inactive
nord	DRSC04361	3		inactive
CG6685	DRSC10695	5		inactive
CG8673	DRSC03105	8		inactive
Adk3	DRSC05917	6		inactive
Adk3	DRSC28006	9		inactive
Ptr	DRSC04852	5		inactive
Ptr	DRSC21517	1		inactive
Asator	DRSC17136	8		inactive
Pgant3	DRSC05942	4		inactive
Pgant3	DRSC29252	3		inactive
CG6912	DRSC16132	9		inactive
